# Reference: the supplement of paper PMC8728848
# This is one part of the list.
# What was measured:
# Experiment in all cases: glycan array binding signal (z-score within array); higher = stronger binding
# Conditions in all cases: glycan notation: IUPAC condensed, linker removed; mutation: Q318A
# [1] = molecular target: GlcNAc(a1-3)Gal(b1-4)GlcNAc
# In short: (§1)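 Columns mapping to the same glycan were averaged after glycan names were converted to IUPAC-condensed notation. The data come from 3228 arrays in the Consortium for Functional Glycomics database, limited to those with an available protein sequence. Binding is reported as a within-array Z-score averaged across arrays of one protein sequence and across linkers.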
# [2] = molecular target: GlcNAc(a1-4)Gal(b1-3)GlcNAc
# In short: as §1
# [3] = molecular target: GlcNAc(a1-4)Gal(b1-4)GalNAc
# In short: as §1
# [4] = molecular target: GlcNAc(a1-4)Gal(b1-4)GlcNAc
# In short: as §1
# [5] = molecular target: GlcNAc(a1-4)Gal(b1-4)GlcNAc(b1-3)Gal(b1-4)Glc
# In short: as §1
# [6] = molecular target: GlcNAc(a1-4)Gal(b1-4)GlcNAc(b1-3)Gal(b1-4)GlcNAc
# In short: as §1
# [7] = molecular target: GlcNAc(a1-4)Gal(b1-4)GlcNAc(b1-3)Gal(b1-4)GlcNAc(b1-3)Gal(b1-4)GlcNAc
# In short: as §1
# [8] = molecular target: GlcNAc(a1-4)Gal(b1-4)GlcNAc(b1-3)Gal(b1-4)[Fuc(a1-3)]GlcNAc(b1-3)Gal(b1-4)[Fuc(a1-3)]GlcNAc
# In short: as §1
# [9] = molecular target: GlcNAc(a1-6)Gal(b1-4)GlcNAc
# In short: as §1
# [10] = molecular target: GlcNAc(b1-2)Gal(b1-3)GalNAc
# In short: as §1
# [11] = molecular target: GlcNAc(b1-2)Man(a1-3)[GlcNAc(b1-2)Man(a1-6)]Man(b1-4)GlcNAc(b1-4)GlcNAc
# In short: as §1
# [12] = molecular target: GlcNAc(b1-2)Man(a1-3)[GlcNAc(b1-2)Man(a1-6)]Man(b1-4)GlcNAc(b1-4)[Fuc(a1-6)]GlcNAc
# In short: as §1
# [13] = molecular target: GlcNAc(b1-2)Man(a1-3)[GlcNAc(b1-4)][GlcNAc(b1-2)Man(a1-6)]Man(b1-4)GlcNAc(b1-4)GlcNAc
# In short: as §1
# [14] = molecular target: GlcNAc(b1-2)Man(a1-3)[GlcNAc(b1-4)][GlcNAc(b1-2)Man(a1-6)]Man(b1-4)GlcNAc(b1-4)[Fuc(a1-6)]GlcNAc
# In short: as §1
# [15] = molecular target: GlcNAc(b1-2)[GlcNAc(b1-4)]Man(a1-3)[GlcNAc(b1-2)Man(a1-6)]Man(b1-4)GlcNAc(b1-4)GlcNAc
# In short: as §1
# [16] = molecular target: GlcNAc(b1-2)[GlcNAc(b1-4)]Man(a1-3)[GlcNAc(b1-4)][GlcNAc(b1-2)Man(a1-6)]Man(b1-4)GlcNAc(b1-4)GlcNAc
# In short: as §1
# [17] = molecular target: GlcNAc(b1-2)[GlcNAc(b1-4)]Man(a1-3)[GlcNAc(b1-4)][GlcNAc(b1-2)[GlcNAc(b1-6)]Man(a1-6)]Man(b1-4)GlcNAc(b1-4)GlcNAc
# In short: as §1
# [18] = molecular target: GlcNAc(b1-2)[GlcNAc(b1-4)]Man(a1-3)[GlcNAc(b1-4)][GlcNAc(b1-2)[GlcNAc(b1-6)]Man(a1-6)]Man(b1-4)GlcNAc(b1-4)[Fuc(a1-6)]GlcNAc
# In short: as §1
# [19] = molecular target: GlcNAc(b1-2)[GlcNAc(b1-6)]Man(a1-6)[GlcNAc(b1-2)Man(a1-3)]Man(b1-4)GlcNAc(b1-4)GlcNAc
# In short: as §1
# [20] = molecular target: GlcNAc(b1-2)[GlcNAc(b1-6)]Man(a1-6)[GlcNAc(b1-2)Man(a1-3)]Man(b1-4)GlcNAc(b1-4)[Fuc(a1-6)]GlcNAc
# In short: as §1
# [21] = molecular target: GlcNAc(b1-2)[GlcNAc(b1-6)]Man(a1-6)[GlcNAc(b1-4)][GlcNAc(b1-2)Man(a1-3)]Man(b1-4)GlcNAc(b1-4)GlcNAc
# In short: as §1
# [22] = molecular target: GlcNAc(b1-3)Fuc
# In short: as §1
# [23] = molecular target: GlcNAc(b1-3)Gal
# In short: as §1
# [24] = molecular target: GlcNAc(b1-3)Gal(b1-3)GalNAc
# In short: as §1
# [25] = molecular target: GlcNAc(b1-3)Gal(b1-4)Glc
# In short: as §1
# [26] = molecular target: GlcNAc(b1-3)Gal(b1-4)GlcNAc
# In short: as §1
# [27] = molecular target: GlcNAc(b1-3)Gal(b1-4)GlcNAc(b1-2)Man(a1-3)[GlcNAc(b1-3)Gal(b1-4)GlcNAc(b1-2)Man(a1-6)]Man(b1-4)GlcNAc(b1-4)GlcNAc
# In short: as §1
# [28] = molecular target: GlcNAc(b1-3)Gal(b1-4)GlcNAc(b1-2)Man(a1-3)[GlcNAc(b1-3)Gal(b1-4)GlcNAc(b1-2)Man(a1-6)]Man(b1-4)GlcNAc(b1-4)[Fuc(a1-6)]GlcNAc
# In short: as §1
# [29] = molecular target: GlcNAc(b1-3)Gal(b1-4)GlcNAc(b1-2)[GlcNAc(b1-3)Gal(b1-4)GlcNAc(b1-6)]Man(a1-6)[GlcNAc(b1-3)Gal(b1-4)GlcNAc(b1-2)Man(a1-3)]Man(b1-4)GlcNAc(b1-4)GlcNAc
# In short: as §1
# [30] = molecular target: GlcNAc(b1-3)Gal(b1-4)GlcNAc(b1-3)Gal(b1-4)GlcNAc
# In short: as §1
# [31] = molecular target: GlcNAc(b1-3)Gal(b1-4)GlcNAc(b1-3)Gal(b1-4)GlcNAc(b1-2)Man(a1-3)[GlcNAc(b1-3)Gal(b1-4)GlcNAc(b1-3)Gal(b1-4)GlcNAc(b1-2)Man(a1-6)]Man(b1-4)GlcNAc(b1-4)GlcNAc
# In short: as §1
# [32] = molecular target: GlcNAc(b1-3)Gal(b1-4)GlcNAc(b1-3)Gal(b1-4)GlcNAc(b1-2)Man(a1-3)[GlcNAc(b1-3)Gal(b1-4)GlcNAc(b1-3)Gal(b1-4)GlcNAc(b1-2)Man(a1-6)]Man(b1-4)GlcNAc(b1-4)[Fuc(a1-6)]GlcNAc
# In short: as §1
# [33] = molecular target: GlcNAc(b1-3)Gal(b1-4)GlcNAc(b1-3)Gal(b1-4)GlcNAc(b1-2)[GlcNAc(b1-3)Gal(b1-4)GlcNAc(b1-3)Gal(b1-4)GlcNAc(b1-6)]Man(a1-6)[GlcNAc(b1-3)Gal(b1-4)GlcNAc(b1-3)Gal(b1-4)GlcNAc(b1-2)Man(a1-3)]Man(b1-4)GlcNAc(b1-4)[Fuc(a1-6)]GlcNAc
# In short: as §1
# [34] = molecular target: GlcNAc(b1-3)Gal(b1-4)GlcNAc(b1-3)Gal(b1-4)GlcNAc(b1-3)Gal(b1-4)GlcNAc(b1-2)Man(a1-3)[GlcNAc(b1-3)Gal(b1-4)GlcNAc(b1-3)Gal(b1-4)GlcNAc(b1-3)Gal(b1-4)GlcNAc(b1-2)Man(a1-6)]Man(b1-4)GlcNAc(b1-4)GlcNAc
# In short: as §1
# [35] = molecular target: GlcNAc(b1-3)Gal(b1-4)GlcNAc(b1-3)Gal(b1-4)GlcNAc(b1-3)Gal(b1-4)GlcNAc(b1-2)Man(a1-3)[GlcNAc(b1-3)Gal(b1-4)GlcNAc(b1-3)Gal(b1-4)GlcNAc(b1-3)Gal(b1-4)GlcNAc(b1-2)Man(a1-6)]Man(b1-4)GlcNAc(b1-4)[Fuc(a1-6)]GlcNAc
# In short: as §1
# [36] = molecular target: GlcNAc(b1-3)Gal(b1-4)GlcNAc(b1-3)Gal(b1-4)GlcNAc(b1-3)Gal(b1-4)GlcNAc(b1-2)[GlcNAc(b1-3)Gal(b1-4)GlcNAc(b1-3)Gal(b1-4)GlcNAc(b1-3)Gal(b1-4)GlcNAc(b1-6)]Man(a1-6)[GlcNAc(b1-3)Gal(b1-4)GlcNAc(b1-3)Gal(b1-4)GlcNAc(b1-3)Gal(b1-4)GlcNAc(b1-2)Man(a1-3)]Man(b1-4)GlcNAc(b1-4)[Fuc(a1-6)]GlcNAc
# In short: as §1
# [37] = molecular target: GlcNAc(b1-3)Gal(b1-4)GlcNAc(b1-3)Gal(b1-4)GlcNAc(b1-3)Gal(b1-4)GlcNAc(b1-3)Gal(b1-4)GlcNAc(b1-2)Man(a1-3)[GlcNAc(b1-3)Gal(b1-4)GlcNAc(b1-3)Gal(b1-4)GlcNAc(b1-3)Gal(b1-4)GlcNAc(b1-3)Gal(b1-4)GlcNAc(b1-2)Man(a1-6)]Man(b1-4)GlcNAc(b1-4)GlcNAc
# In short: as §1
# [38] = molecular target: GlcNAc(b1-3)Gal(b1-4)GlcNAc(b1-3)Gal(b1-4)GlcNAc(b1-3)Gal(b1-4)GlcNAc(b1-3)Gal(b1-4)GlcNAc(b1-2)Man(a1-3)[GlcNAc(b1-3)Gal(b1-4)GlcNAc(b1-3)Gal(b1-4)GlcNAc(b1-3)Gal(b1-4)GlcNAc(b1-3)Gal(b1-4)GlcNAc(b1-2)Man(a1-6)]Man(b1-4)GlcNAc(b1-4)[Fuc(a1-6)]GlcNAc
# In short: as §1
binder,measurement,setting,value
"SUN4 (Saccharomyces cerevisiae), P53616 (protein) MGSSHHHHHHSSGLVPRGSHNGSIYGDLADFSGPYEKFEDGTIPCGQFPSGQGVIPISWLDEGGWSGVENTDTSTGGSCKEGSYCSYACQPGMSKTQWPSDQPSDGRSIGGLLCKDGYLYRSNTDTDYLCEWGVDAAYVVSELSNDVAICRTDYPGTENMVIPTYVQAGDSLPLTVVDQDTYYTWQGLKTSAAYYVNNAGISVEDACVWGSSSSGVGNWAPLNFGAGSSDGVAYLSLIPNPNNGNALNFNVKIVAADDSSTVNGECIYENGSFSGGSDGCTVSVTAGKAKFVLYN",glycan array binding signal (z-score),[1],-0.75
same,glycan array binding signal (z-score),[2],-0.269
same,glycan array binding signal (z-score),[3],-0.54
same,glycan array binding signal (z-score),[4],-0.911
same,glycan array binding signal (z-score),[5],0.243
same,glycan array binding signal (z-score),[6],-0.654
same,glycan array binding signal (z-score),[7],1.38
same,glycan array binding signal (z-score),[8],0.137
same,glycan array binding signal (z-score),[9],-0.09
same,glycan array binding signal (z-score),[10],-1.1
same,glycan array binding signal (z-score),[11],-0.045
same,glycan array binding signal (z-score),[12],-0.833
same,glycan array binding signal (z-score),[13],0.666
same,glycan array binding signal (z-score),[14],0.755
same,glycan array binding signal (z-score),[15],0.184
same,glycan array binding signal (z-score),[16],0.958
same,glycan array binding signal (z-score),[17],0.735
same,glycan array binding signal (z-score),[18],-0.115
same,glycan array binding signal (z-score),[19],-0.369
same,glycan array binding signal (z-score),[20],2.54
same,glycan array binding signal (z-score),[21],-1.18
same,glycan array binding signal (z-score),[22],-0.451
same,glycan array binding signal (z-score),[23],-1.28
same,glycan array binding signal (z-score),[24],-0.311
same,glycan array binding signal (z-score),[25],0.27
same,glycan array binding signal (z-score),[26],-0.485
same,glycan array binding signal (z-score),[27],-0.627
same,glycan array binding signal (z-score),[28],-0.092
same,glycan array binding signal (z-score),[29],1.35
same,glycan array binding signal (z-score),[30],0.405
same,glycan array binding signal (z-score),[31],-0.497
same,glycan array binding signal (z-score),[32],0.822
same,glycan array binding signal (z-score),[33],0.713
same,glycan array binding signal (z-score),[34],0.249
same,glycan array binding signal (z-score),[35],0.75
same,glycan array binding signal (z-score),[36],1.44
same,glycan array binding signal (z-score),[37],1.01
same,glycan array binding signal (z-score),[38],-0.195

# A different layout for some results above:
binder | measurement | setting | value
SUN4 (Saccharomyces cerevisiae), P53616 (protein) MGSSHHHHHHSSGLVPRGSHNGSIYGDLADFSGPYEKFEDGTIPCGQFPSGQGVIPISWLDEGGWSGVENTDTSTGGSCKEGSYCSYACQPGMSKTQWPSDQPSDGRSIGGLLCKDGYLYRSNTDTDYLCEWGVDAAYVVSELSNDVAICRTDYPGTENMVIPTYVQAGDSLPLTVVDQDTYYTWQGLKTSAAYYVNNAGISVEDACVWGSSSSGVGNWAPLNFGAGSSDGVAYLSLIPNPNNGNALNFNVKIVAADDSSTVNGECIYENGSFSGGSDGCTVSVTAGKAKFVLYN | glycan array binding signal (z-score) | [5] | 0.243
same | glycan array binding signal (z-score) | [6] | -0.654
same | glycan array binding signal (z-score) | [7] | 1.38
same | glycan array binding signal (z-score) | [8] | 0.137
same | glycan array binding signal (z-score) | [9] | -0.09
same | glycan array binding signal (z-score) | [10] | -1.1
same | glycan array binding signal (z-score) | [11] | -0.045
same | glycan array binding signal (z-score) | [12] | -0.833
